Measurements as given in patent publication US20250283871A1, “COMPOSITIONS AND METHODS FOR MODULATING THE INTERACTION BETWEEN SS18-SSX FUSION ONCOPROTEIN AND NUCLEOSOMES” (Dana-Farber Cancer Institute, Inc., priority 2020, published 2025).

The molecules below were run on BAF complex subunits and histone proteins (assay: Mass spectrometry proteomics of purified HA-SS18 WT and HA-SS18-SSX1 complexes (Tables 5A-5E)). Settings: HA-SS18WT_CHR_peptides: protein identified in HA-SS18 WT BAF complex purification from nuclease-treated solubilized chromatin (CHR), HEK-293T.
Parameters: species or system human

| Molecule | Total (total peptides) | Unique (unique peptides) |
| --- | --- | --- |
| UBA1 (protein, UniProt P22314 2-1058, looked up) Ubiquitin-like …: SSSPLSKKRRVSGPDPKPGSNCSPAQSVLSEVPSVPTNGMAKNGSEADIDEGLYSRQLYVLGHEAMKRLQTSSVLVSGLRGLGVEIAKNIILGGVKAVTLHDQGTAQWADLSSQFYLREEDIGKNRAEVSQPRLAELNSYVPVTAYTGPLVEDFLSGFQVVVLTNTPLEDQLRVGEFCHNRGIKLVVADTRGLFGQLFCDFGEEMILTDSNGEQPLSAMVSMVTKDNPGVVTCLDEARHGFESGDFVSFSEVQGMVELNGNQPMEIKVLGPYTFSICDTSNFSDYIRGGIVSQVKVPKKISFKSLVASLAEPDFVVTDFAKFSRPAQLHIGFQALHQFCAQHGRPPRPRNEEDAAELVALAQAVNARALPAVQQNNLDEDLIRKLAYVAAGDLAPINAFIGGLAAQEVMKACSGKFMPIMQWLYFDALECLPEDKEVLTEDKCLQRQNRYDGQVAVFGSDLQEKLGKQKYFLVGAGAIGCELLKNFAMIGLGCGEGGEIIVTDMDTIEKSNLNRQFLFRPWDVTKLKSDTAAAAVRQMNPHIRVTSHQNRVGPDTERIYDDDFFQNLDGVANALDNVDARMYMDRRCVYYRKPLLESGTLGTKGNVQVVIPFLTESYSSSQDPPEKSIPICTLKNFPNAIEHTLQWARDEFEGLFKQPAENVNQYLTDPKFVERTLRLAGTQPLEVLEAVQRSLVLQRPQTWADCVTWACHHWHTQYSNNIRQLLHNFPPDQLTSSGAPFWSGPKRCPHPLTFDVNNPLHLDYVMAAANLFAQTYGLTGSQDRAAVATFLQSVQVPEFTPKSGVKIHVSDQELQSANASVDDSRLEELKATLPSPDKLPGFKMYPIDFEKDDDSNFHMDFIVAASNLRAENYDIPSADRHKSKLIAGKIIPAIATTTAAVVGLVCLELYKVVQGHRQLDSYKNGFLNLALPFFGFSEPLAAPRHQYYNQEWTLWDRFEVQGLQPNGEEMTLKQFLDYFKTEHKLEITMLSQGVSMLYSFFMPAAKLKERLDQPMTEIVSRVSKRKLGRHVRALVLELCCNDESGEDVEVPYVRYTIR | 1 | 1 |

Same assay, conditions: HA-SS18WT_NE_peptides: HA-SS18 WT complexes purified from nuclear extract (NE), HEK-293T; label = protein identified (Gene Symbol)

| Molecule | Total (peptides) | Unique (peptides) |
| --- | --- | --- |
| NSF (protein, UniProt P46459 1-744, looked up) Vesicle-fusing ATPase: MAGRSMQAARCPTDELSLTNCAVVNEKDFQSGQHVIVRTSPNHRYTFTLKTHPSVVPGSIAFSLPQRKWAGLSIGQEIEVSLYTFDKAKQCIGTMTIEIDFLQKKSIDSNPYDTDKMAAEFIQQFNNQAFSVGQQLVFSFNEKLFGLLVKDIEAMDPSILKGEPATGKRQKIEVGLVVGNSQVAFEKAENSSLNLIGKAKTKENRQSIINPDWNFEKMGIGGLDKEFSDIFRRAFASRVFPPEIVEQMGCKHVKGILLYGPPGCGKTLLARQIGKMLNAREPKVVNGPEILNKYVGESEANIRKLFADAEEEQRRLGANSGLHIIIFDEIDAICKQRGSMAGSTGVHDTVVNQLLSKIDGVEQLNNILVIGMTNRPDLIDEALLRPGRLEVKMEIGLPDEKGRLQILHIHTARMRGHQLLSADVDIKELAVETKNFSGAELEGLVRAAQSTAMNRHIKASTKVEVDMEKAESLQVTRGDFLASLENDIKPAFGTNQEDYASYIMNGIIKWGDPVTRVLDDGELLVQQTKNSDRTPLVSVLLEGPPHSGKTALAAKIAEESNFPFIKICSPDKMIGFSETAKCQAMKKIFDDAYKSQLSCVVVDDIERLLDYVPIGPRFSNLVLQALLVLLKKAPPQGRKLLIIGTTSRKDVLQEMEMLNAFSTTIHVPNIATGEQLLEALELLGNFKDKERTTIAQQVKGKKVWIGIKKLLMLIEMSLQMDPEYRVRKFLALLREEGASPLDFD | 4 | 3 |
| SPG7 (protein, UniProt Q9UQ90 106-795, looked up) Mitochondrial inner membrane …: LKQKNKEKDKSKGKAPEEDEEERRRRERDDQMYRERLRTLLVIAVVMSLLNALSTSGGSISWNDFVHEMLAKGEVQRVQVVPESDVVEVYLHPGAVVFGRPRLALMYRMQVANIDKFEEKLRAAEDELNIEAKDRIPVSYKRTGFFGNALYSVGMTAVGLAILWYVFRLAGMTGREGGFSAFNQLKMARFTIVDGKMGKGVSFKDVAGMHEAKLEVREFVDYLKSPERFLQLGAKVPKGALLLGPPGCGKTLLAKAVATEAQVPFLAMAGPEFVEVIGGLGAARVRSLFKEARARAPCIVYIDEIDAVGKKRSTTMSGFSNTEEEQTLNQLLVEMDGMGTTDHVIVLASTNRADILDGALMRPGRLDRHVFIDLPTLQERREIFEQHLKSLKLTQSSTFYSQRLAELTPGFSGADIANICNEAALHAAREGHTSVHTLNFEYAVERVLAGTAKKSKILSKEEQKVVAFHESGHALVGWMLEHTEAVMKVSITPRTNAALGFAQMLPRDQHLFTKEQLFERMCMALGGRASEALSFNEVTSGAQDDLRKVTRIAYSMVKQFGMAPGIGPISFPEAQEGLMGIGRRPFSQGLQQMMDHEARLLVAKAYRHTEKVLQDNLDKLQALANALLEKEVINYEDIEALIGPPPHGPKKMIAPQRWIDAQREKQDLGEEETEETQQPPLGGEEPTWPK | 3 | 3 |
| KHSRP (protein, UniProt Q92945 2-711, looked up) Far upstream element-binding …: SDYSTGGPPPGPPPPAGGGGGAGGAGGGPPPGPPGAGDRGGGGPGGGGPGGGSAGGPSQPPGGGGPGIRKDAFADAVQRARQIAAKIGGDAATTVNNSTPDFGFGGQKRQLEDGDQPESKKLASQGDSISSQLGPIHPPPRTSMTEEYRVPDGMVGLIIGRGGEQINKIQQDSGCKVQISPDSGGLPERSVSLTGAPESVQKAKMMLDDIVSRGRGGPPGQFHDNANGGQNGTVQEIMIPAGKAGLVIGKGGETIKQLQERAGVKMILIQDGSQNTNVDKPLRIIGDPYKVQQACEMVMDILRERDQGGFGDRNEYGSRIGGGIDVPVPRHSVGVVIGRSGEMIKKIQNDAGVRIQFKQDDGTGPEKIAHIMGPPDRCEHAARIINDLLQSLRSGPPGPPGGPGMPPGGRGRGRGQGNWGPPGGEMTFSIPTHKCGLVIGRGGENVKAINQQTGAFVEISRQLPPNGDPNFKLFIIRGSPQQIDHAKQLIEEKIEGPLCPVGPGPGGPGPAGPMGPFNPGPFNQGPPGAPPHAGGPPPHQYPPQGWGNTYPQWQPPAPHDPSKAAAAAADPNAAWAAYYSHYYQQPPGPVPGPAPAPAAPPAQGEPPQPPPTGQSDYTKAWEEYYKKIGQQPQQPGAPPQQDYTKAWEEYYKKQAQVATGGGPGAPPGSQPDYSAAWAEYYRQQAAYYGQTPGPGGPQPPPTQQGQQQAQ | 3 | 3 |
| MYL12A (protein, UniProt P19105 1-171, looked up) Myosin regulatory light chain …: MSSKRTKTKTKKRPQRATSNVFAMFDQSQIQEFKEAFNMIDQNRDGFIDKEDLHDMLASLGKNPTDEYLDAMMNEAPGPINFTMFLTMFGEKLNGTDPEDVIRNAFACFDEEATGTIQEDYLRELLTTMGDRFTDEEVDELYREAPIDKKGNFNYIEFTRILKHGAKDKDD | 3 | 3 |
| ABCB7 (protein, UniProt O75027 23-752, looked up) Iron-sulfur clusters …: HSAILIRPLVSVSGSGPQWRPHQLGALGTARAYQIPESLKSITWQRLGKGNSGQFLDAAKALQVWPLIEKRTCWHGHAGGGLHTDPKEGLKDVDTRKIIKAMLSYVWPKDRPDLRARVAISLGFLGGAKAMNIVVPFMFKYAVDSLNQMSGNMLNLSDAPNTVATMATAVLIGYGVSRAGAAFFNEVRNAVFGKVAQNSIRRIAKNVFLHLHNLDLGFHLSRQTGALSKAIDRGTRGISFVLSALVFNLLPIMFEVMLVSGVLYYKCGAQFALVTLGTLGTYTAFTVAVTRWRTRFRIEMNKADNDAGNAAIDSLLNYETVKYFNNERYEAQRYDGFLKTYETASLKSTSTLAMLNFGQSAIFSVGLTAIMVLASQGIVAGTLTVGDLVMVNGLLFQLSLPLNFLGTVYRETRQALIDMNTLFTLLKVDTQIKDKVMASPLQITPQTATVAFDNVHFEYIEGQKVLSGISFEVPAGKKVAIVGGSGSGKSTIVRLLFRFYEPQKGSIYLAGQNIQDVSLESLRRAVGVVPQDAVLFHNTIYYNLLYGNISASPEEVYAVAKLAGLHDAILRMPHGYDTQVGERGLKLSGGEKQRVAIARAILKDPPVILYDEATSSLDSITEETILGAMKDVVKHRTSIFIAHRLSTVVDADEIIVLDQGKVAERGTHHGLLANPHSIYSEMWHTQSSRVQNHDNPKWEAKKENISKEEERKKLQEEIVNSVKGCGNCSC | 4 | 3 |

Same assay, conditions: HA-SS18WT_NE_peptides: proteins co-purified with HA-SS18 WT from nuclear extract (NE), HEK-293T

| Molecule | Total (peptides) | Unique (peptides) |
| --- | --- | --- |
| IDH3G (protein, UniProt P51553 40-393, looked up) Isocitrate dehydrogenase …: FSEQTIPPSAKYGGRHTVTMIPGDGIGPELMLHVKSVFRHACVPVDFEEVHVSSNADEEDIRNAIMAIRRNRVALKGNIETNHNLPPSHKSRNNILRTSLDLYANVIHCKSLPGVVTRHKDIDILIVRENTEGEYSSLEHESVAGVVESLKIITKAKSLRIAEYAFKLAQESGRKKVTAVHKANIMKLGDGLFLQCCREVAARYPQITFENMIVDNTTMQLVSRPQQFDVMVMPNLYGNIVNNVCAGLVGGPGLVAGANYGHVYAVFETATRNTGKSIANKNIANPTATLLASCMMLDHLKLHSYATSIRKAVLASMDNENMHTPDIGGQGTTSEAIQDVIRHIRVINGRAVEA | 2 | 2 |
| SLC25A10 (protein, UniProt Q9UBX3 1-287, looked up) Mitochondrial dicarboxylate …: MAAEARVSRWYFGGLASCGAACCTHPLDLLKVHLQTQQEVKLRMTGMALRVVRTDGILALYSGLSASLCRQMTYSLTRFAIYETVRDRVAKGSQGPLPFHEKVLLGSVSGLAGGFVGTPADLVNVRMQNDVKLPQGQRRNYAHALDGLYRVAREEGLRRLFSGATMASSRGALVTVGQLSCYDQAKQLVLSTGYLSDNIFTHFVASFIAGGCATFLCQPLDVLKTRLMNSKGEYQGVFHCAVETAKLGPLAFYKGLVPAGIRLIPHTVLTFVFLEQLRKNFGIKVPS | 2 | 2 |
| SLC2A1 (protein, UniProt P11166 1-492, looked up) Solute carrier family 2, …: MEPSSKKLTGRLMLAVGGAVLGSLQFGYNTGVINAPQKVIEEFYNQTWVHRYGESILPTTLTTLWSLSVAIFSVGGMIGSFSVGLFVNRFGRRNSMLMMNLLAFVSAVLMGFSKLGKSFEMLILGRFIIGVYCGLTTGFVPMYVGEVSPTALRGALGTLHQLGIVVGILIAQVFGLDSIMGNKDLWPLLLSIIFIPALLQCIVLPFCPESPRFLLINRNEENRAKSVLKKLRGTADVTHDLQEMKEESRQMMREKKVTILELFRSPAYRQPILIAVVLQLSQQLSGINAVFYYSTSIFEKAGVQQPVYATIGSGIVNTAFTVVSLFVVERAGRRTLHLIGLAGMAGCAILMTIALALLEQLPWMSYLSIVAIFGFVAFFEVGPGPIPWFIVAELFSQGPRPAAIAVAGFSNWTSNFIVGMCFQYVEQLCGPYVFIIFTVLLVLFFIFTYFKVPETKGRTFDEIASGFRQGGASQSDKTPEELFHPLGADSQV | 2 | 2 |
